Measured values as given in PMC5622089.
Results are given in words; binding and its absence hold for the method and conditions named. Binding seen in cells or lysates may run through a third protein. A yes stands for co-enrichment or nearness to the bait. Other partners may have been found. Sequences can lack the tags named with a protein.

The chains behind the UniProt entries cited, without tags or fusion partners.
UniProt P13864: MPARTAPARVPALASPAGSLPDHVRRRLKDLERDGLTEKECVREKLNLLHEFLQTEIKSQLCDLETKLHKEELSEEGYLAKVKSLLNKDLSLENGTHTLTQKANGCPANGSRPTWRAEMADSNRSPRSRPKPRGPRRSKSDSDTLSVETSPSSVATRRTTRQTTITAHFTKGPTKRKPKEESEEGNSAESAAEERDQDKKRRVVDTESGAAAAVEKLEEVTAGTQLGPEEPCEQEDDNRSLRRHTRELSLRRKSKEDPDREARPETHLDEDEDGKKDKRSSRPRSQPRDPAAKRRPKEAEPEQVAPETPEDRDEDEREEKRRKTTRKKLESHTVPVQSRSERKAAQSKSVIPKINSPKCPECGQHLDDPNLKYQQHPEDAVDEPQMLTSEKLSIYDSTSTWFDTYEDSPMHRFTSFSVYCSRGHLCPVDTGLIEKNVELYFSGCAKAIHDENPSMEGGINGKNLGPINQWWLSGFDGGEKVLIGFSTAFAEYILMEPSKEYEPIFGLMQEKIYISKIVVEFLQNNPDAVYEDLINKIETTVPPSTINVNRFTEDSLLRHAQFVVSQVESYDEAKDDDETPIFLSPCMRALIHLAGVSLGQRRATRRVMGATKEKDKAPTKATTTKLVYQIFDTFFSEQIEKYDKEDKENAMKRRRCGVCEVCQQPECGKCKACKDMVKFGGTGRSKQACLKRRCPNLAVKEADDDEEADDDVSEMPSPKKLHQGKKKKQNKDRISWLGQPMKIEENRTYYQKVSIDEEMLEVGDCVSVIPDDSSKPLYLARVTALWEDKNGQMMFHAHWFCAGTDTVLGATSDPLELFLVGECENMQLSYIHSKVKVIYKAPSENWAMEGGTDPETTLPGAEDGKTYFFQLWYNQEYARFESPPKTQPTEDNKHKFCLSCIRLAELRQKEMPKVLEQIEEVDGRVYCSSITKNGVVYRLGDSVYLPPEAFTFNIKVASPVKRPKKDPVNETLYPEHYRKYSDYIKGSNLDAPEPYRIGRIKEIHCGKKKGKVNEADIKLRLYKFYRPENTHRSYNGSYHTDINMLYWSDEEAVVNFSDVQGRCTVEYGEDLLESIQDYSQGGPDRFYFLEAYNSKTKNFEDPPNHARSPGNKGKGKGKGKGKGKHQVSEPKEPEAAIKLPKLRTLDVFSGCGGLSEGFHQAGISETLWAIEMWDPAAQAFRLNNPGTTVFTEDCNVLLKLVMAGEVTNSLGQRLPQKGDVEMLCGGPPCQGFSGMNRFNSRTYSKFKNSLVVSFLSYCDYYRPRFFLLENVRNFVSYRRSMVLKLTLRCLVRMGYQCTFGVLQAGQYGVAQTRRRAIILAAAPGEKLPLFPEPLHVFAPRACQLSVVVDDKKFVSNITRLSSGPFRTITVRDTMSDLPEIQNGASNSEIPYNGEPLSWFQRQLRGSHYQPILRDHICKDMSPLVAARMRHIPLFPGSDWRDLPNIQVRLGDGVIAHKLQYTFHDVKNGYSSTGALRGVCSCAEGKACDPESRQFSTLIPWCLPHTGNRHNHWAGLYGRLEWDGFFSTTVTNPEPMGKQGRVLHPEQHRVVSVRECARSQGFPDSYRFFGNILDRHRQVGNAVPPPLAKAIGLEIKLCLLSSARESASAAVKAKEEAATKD
UniProt Q5PSV9: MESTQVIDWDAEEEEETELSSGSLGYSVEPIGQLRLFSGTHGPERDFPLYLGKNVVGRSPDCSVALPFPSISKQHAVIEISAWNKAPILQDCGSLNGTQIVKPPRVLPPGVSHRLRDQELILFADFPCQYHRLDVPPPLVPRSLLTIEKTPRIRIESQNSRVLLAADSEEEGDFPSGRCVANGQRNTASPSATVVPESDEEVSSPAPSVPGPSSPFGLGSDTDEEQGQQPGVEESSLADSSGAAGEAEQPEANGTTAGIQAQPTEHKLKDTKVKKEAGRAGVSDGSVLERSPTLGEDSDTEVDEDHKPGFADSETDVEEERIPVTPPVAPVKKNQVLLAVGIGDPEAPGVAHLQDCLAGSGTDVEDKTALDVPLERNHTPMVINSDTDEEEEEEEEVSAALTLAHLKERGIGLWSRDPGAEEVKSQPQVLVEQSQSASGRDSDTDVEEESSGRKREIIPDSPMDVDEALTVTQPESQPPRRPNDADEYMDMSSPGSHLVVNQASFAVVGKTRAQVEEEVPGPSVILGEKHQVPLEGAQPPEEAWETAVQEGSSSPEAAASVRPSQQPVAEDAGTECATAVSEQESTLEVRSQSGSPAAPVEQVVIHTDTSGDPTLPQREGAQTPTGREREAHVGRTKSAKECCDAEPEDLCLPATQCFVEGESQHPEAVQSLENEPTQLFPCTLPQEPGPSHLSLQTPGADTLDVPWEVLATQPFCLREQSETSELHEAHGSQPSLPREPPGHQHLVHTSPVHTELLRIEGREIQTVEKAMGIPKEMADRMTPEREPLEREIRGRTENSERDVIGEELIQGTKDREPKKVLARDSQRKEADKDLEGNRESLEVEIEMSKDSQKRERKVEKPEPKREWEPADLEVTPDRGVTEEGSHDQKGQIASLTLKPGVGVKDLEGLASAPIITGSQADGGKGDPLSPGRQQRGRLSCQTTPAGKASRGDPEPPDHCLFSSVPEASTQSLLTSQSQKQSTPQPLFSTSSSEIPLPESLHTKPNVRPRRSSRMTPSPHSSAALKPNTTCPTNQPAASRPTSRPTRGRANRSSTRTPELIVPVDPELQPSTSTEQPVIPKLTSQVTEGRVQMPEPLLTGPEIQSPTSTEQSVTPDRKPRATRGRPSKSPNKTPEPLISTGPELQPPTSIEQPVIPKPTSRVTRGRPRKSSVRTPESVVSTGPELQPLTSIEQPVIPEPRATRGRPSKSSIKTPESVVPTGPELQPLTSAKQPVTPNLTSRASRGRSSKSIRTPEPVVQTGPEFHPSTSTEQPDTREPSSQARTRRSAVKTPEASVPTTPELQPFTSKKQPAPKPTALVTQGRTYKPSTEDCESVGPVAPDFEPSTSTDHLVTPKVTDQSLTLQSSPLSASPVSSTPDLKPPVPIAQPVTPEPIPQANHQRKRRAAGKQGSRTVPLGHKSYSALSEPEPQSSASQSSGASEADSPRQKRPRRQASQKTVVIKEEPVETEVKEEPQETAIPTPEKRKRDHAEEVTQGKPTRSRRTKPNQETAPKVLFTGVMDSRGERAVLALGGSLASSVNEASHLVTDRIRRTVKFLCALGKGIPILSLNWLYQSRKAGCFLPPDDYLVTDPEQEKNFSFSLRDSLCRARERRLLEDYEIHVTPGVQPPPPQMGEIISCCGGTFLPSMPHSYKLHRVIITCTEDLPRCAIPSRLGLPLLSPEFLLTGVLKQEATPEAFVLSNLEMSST
UniProt P54276: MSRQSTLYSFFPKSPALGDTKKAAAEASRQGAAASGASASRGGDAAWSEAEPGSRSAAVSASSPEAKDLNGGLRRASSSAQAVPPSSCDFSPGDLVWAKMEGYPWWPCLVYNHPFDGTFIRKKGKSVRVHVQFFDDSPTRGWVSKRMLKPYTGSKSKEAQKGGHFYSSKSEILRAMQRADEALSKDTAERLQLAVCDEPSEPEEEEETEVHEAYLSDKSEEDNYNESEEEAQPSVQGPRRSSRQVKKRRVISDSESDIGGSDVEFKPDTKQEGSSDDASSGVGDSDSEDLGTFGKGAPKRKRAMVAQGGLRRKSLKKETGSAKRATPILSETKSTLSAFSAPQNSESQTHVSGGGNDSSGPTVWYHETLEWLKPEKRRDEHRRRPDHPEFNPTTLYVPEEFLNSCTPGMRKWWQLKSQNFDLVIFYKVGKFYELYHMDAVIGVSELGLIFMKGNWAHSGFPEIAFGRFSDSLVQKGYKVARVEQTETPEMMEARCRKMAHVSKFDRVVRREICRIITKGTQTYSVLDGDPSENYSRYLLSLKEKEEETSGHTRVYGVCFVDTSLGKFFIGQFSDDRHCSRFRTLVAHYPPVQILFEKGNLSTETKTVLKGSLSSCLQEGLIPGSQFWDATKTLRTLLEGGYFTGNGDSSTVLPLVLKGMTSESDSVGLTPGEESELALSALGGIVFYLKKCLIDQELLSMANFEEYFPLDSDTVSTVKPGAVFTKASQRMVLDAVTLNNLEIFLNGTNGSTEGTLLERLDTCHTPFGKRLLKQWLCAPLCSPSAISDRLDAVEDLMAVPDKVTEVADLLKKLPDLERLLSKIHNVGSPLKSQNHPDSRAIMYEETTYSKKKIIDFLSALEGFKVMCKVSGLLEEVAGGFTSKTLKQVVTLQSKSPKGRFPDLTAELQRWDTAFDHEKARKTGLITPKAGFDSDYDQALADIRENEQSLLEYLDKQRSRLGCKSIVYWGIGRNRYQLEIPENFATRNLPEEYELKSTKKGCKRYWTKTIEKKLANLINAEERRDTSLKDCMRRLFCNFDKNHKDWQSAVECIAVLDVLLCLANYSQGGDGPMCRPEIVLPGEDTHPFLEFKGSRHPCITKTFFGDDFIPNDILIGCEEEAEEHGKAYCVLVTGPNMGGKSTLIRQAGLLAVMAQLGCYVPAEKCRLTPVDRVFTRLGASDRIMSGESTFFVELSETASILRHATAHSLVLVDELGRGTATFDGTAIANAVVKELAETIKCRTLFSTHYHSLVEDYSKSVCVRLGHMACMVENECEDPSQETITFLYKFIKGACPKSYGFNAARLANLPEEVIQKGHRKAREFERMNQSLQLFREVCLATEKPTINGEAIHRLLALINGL

B1: LIG3 (protein, UniProt P97386 1-1015)
chain: MTLAFKILFPRNLCALGRKELCLFPEQNRWAAISQFSQWSETNLLGGCCLLQRRKPVLALQRGHLRPRATHLTFWPGSHVGLCTGPCAMAEQRFCVDYAKRGTAGCKKCKEKIVKGVCRIGKVVPNPFSESGGDMKEWYHIKCMFEKLERARATTKKIEDLTELEGWEELEDNEKEQISQHIADLSSKAAATPKKKAAVQAKLTTTGQVTSPVKGASFITSTNPRKFSGFSAAKPNNSEQAPSSPAPGTSLSASKCDPKHKDCLLREFRKLCAMVAENPSYNTKTQIIHDFLQKGSTGGFSDGFHGDVYLTVKLLLPGVIKSVYNLNDKQIVKLFSRIFNCNPDDMARDLEQGDVSETIRIFFEQSKSFPPAAKSLLTIQEVDAFLLHLSKLTKEDEQQQALQDIASRCTANDLKCIIRLIKHDLKMNSGAKHVLDALDPNAYEAFKASRNLQDVVERVLHNEQEVEKDPGRRRALRVQASLMTPVQPMLAEACKSIEYAMKKCPNGMFSEIKYDGERVQVHKKGDHFSYFSRSLKPVLPHKVAHFKDYIPKAFPGGQSMILDSEVLLIDNNTGKPLPFGTLGVHKKAAFQDANVCLFVFDCIYFNDVSLMDRPLCERRKFLHDNMVEIRNRIMFSEMKQVTKASDLADMINRVIREGLEGLVLKDVKGTYEPGKRHWLKVKKDYLNEGAMADTADLVVLGAFYGQGSKGGMMSIFLMGCYDPDSQKWCTVTKCAGGHDDATLARLQKELVMVKISKDPSKIPSWLKINKIYYPDFIVPDPKKAAVWEITGAEFSRSEAHTADGISIRFPRCTRIRDDKDWKSATNLPQLKELYQLSKDKADFAVVAGDEASPTTGGSSGENEGTAGSAGPCKGPPSKSSASAKTTEQKLNSPSSRGGIKPIPKHSPMKPGEKLAVKSSPVKVGMKRKATDETPCLKKVLLDVFTGVRLYLPPSTPDFKRLKRYFVAFDGDLVQEFDMGSATHVLGNREKNTDAQLVSSEWIWACIRKRRLIAPC

Target: T1, GST-Zfp296 fusion protein (mouse) (UniProt E9Q6W4)
T1 sequence: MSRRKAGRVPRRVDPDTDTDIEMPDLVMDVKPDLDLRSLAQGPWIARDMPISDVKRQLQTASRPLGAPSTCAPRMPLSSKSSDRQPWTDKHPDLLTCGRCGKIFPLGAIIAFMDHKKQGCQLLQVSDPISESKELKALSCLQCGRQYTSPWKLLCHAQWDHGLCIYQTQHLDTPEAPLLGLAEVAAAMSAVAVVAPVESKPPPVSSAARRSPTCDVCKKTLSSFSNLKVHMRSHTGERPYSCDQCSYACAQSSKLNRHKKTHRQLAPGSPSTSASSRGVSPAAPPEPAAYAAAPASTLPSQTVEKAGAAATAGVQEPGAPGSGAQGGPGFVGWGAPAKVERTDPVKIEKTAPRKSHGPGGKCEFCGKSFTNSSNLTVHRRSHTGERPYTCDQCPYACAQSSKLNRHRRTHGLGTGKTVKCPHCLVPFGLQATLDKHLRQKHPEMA
Experiment: affinity purification with mass spectrometry; purified GST-Zfp296 or GST bound to glutathione magnetic beads, incubated overnight at 4 °C with nuclease-treated EB3 mouse ES cell nuclear extract (high-salt extract diluted 3-fold in 20 mM Tris-HCl pH 8.0); washed three times with PBS plus 0.1% Tween-20; LC-MS/MS; 2-fold change cut-off against GST alone; only the target purified

Molecule	binding
Dnmt1 (from UniProt P13864 1-1620)	binds
Dnmt3b (from UniProt O88509 1-859)	binds
H2AX (from UniProt P27661 1-143)	binds
MDC1 (from UniProt Q5PSV9 1-1707)	binds
MSH6 (from UniProt P54276 1-1358)	binds
B1	binds
